Data published in PubChem BioAssay (EPA / NIEHS).
The shares of active, inactive and inconclusive entries below differ from those in the screen. A potency beside an inconclusive call is a rough fit, not a confirmed value. Active and inactive are the calls of the source. Rule for the calls: active = hit-call score of the fitted dose curve at least 0.9, where 1 is the maximum; inconclusive = response in the unintended direction; inactive = score below 0.9.

Chains of the proteins cited; added tags and fusions are not shown. Lines headed by an entry give the natural chain unless they say otherwise; changes in a name come on top.
UniProt P10275: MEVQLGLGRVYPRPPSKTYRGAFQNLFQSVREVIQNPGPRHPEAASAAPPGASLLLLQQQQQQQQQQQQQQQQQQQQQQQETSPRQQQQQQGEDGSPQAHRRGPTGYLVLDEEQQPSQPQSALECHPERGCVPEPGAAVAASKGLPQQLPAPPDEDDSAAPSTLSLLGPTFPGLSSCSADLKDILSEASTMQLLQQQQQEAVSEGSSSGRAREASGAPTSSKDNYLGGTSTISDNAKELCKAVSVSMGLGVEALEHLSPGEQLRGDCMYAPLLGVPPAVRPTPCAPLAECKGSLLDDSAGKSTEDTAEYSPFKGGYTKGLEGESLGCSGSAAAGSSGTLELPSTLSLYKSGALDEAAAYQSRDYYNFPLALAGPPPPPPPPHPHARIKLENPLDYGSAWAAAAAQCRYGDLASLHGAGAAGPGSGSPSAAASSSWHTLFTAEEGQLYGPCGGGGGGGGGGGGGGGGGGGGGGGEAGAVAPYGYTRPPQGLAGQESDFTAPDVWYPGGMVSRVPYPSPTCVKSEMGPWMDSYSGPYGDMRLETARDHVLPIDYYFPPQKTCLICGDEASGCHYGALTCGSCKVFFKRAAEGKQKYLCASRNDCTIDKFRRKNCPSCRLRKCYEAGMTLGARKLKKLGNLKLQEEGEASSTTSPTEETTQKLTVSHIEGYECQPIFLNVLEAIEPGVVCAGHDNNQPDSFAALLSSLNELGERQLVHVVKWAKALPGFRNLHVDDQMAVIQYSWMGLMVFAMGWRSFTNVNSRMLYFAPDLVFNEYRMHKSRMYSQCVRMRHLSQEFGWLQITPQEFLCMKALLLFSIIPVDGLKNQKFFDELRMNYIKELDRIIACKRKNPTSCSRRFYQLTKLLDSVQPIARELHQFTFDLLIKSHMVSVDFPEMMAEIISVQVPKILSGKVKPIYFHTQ

Biological target: Ratio of Nucleoli Translocation and Cytoplasm, AR (gene 367) (UniProt P10275)
Experiment: UPITT_HCI_U2OS_AR_TIF2_Nucleoli_Cytoplasm_Ratio_Antagonist: University of Pittsburgh U2OS Androgen Receptor-Transcriptional Intermediary Factor 2 (AR-TIF2) Antagonism High Content Imaging Assay for Ratio of Nucleoli Translocation and Cytoplasm (AID 2283999);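 note: antagonists lower the DHT-driven ratio of nucleolar to cytoplasmic red signal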
Method in brief: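 U2OS cells co-expressing RFP-tagged human AR and GFP-tagged TIF2, antagonist mode with DHT as baseline. Nucleolar-to-cytoplasmic red fluorescence ratio imaged by high-content microscopy; final compound 20 uM (0.2% DMSO) primary, 0.195–50 uM (0.5% DMSO) concentration-response.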

Structure (SMILES) | AC50 | outcome
CCCCC/C=C\CCC=O | inconclusive: 50 µM | –
O=C(O)C1(C(=O)Nc2ccc(Cl)cc2Cl)CC1 | inconclusive: 50 µM | –
O=C(c1ccc(O)cc1O)c1ccc(O)cc1O | active: 2.35 µM | –
CC1=C(C)S(=O)(=O)CCS1(=O)=O | inconclusive: 50 µM | –
C[C@]12CC[C@H]3C(=CCc4cc(O)ccc43)[C@@H]1CCC2=O | active: 3.04 µM | –
c1ccc2c(c1)[nH]c1ccccc12 | – | inactive
CCCCCCc1ccc(N)cc1 | – | inactive
c1ccc2[nH]c(-c3cscn3)nc2c1 | inconclusive: 50 µM | –
NCCCN1CCOCC1 | inconclusive: 50 µM | –
CCCCCCCCCCCCCC[P+](CCCC)(CCCC)CCCC | active: 9.75 µM | –
C[C@]12CC[C@@H]3c4ccc(O)cc4C[C@@H](CCCCCCCCCS(=O)CCCC(F)(F)C(F)(F)F)[C@H]3[C@@H]1CC[C@@H]2O (stereo partly specified) | inconclusive: 25 µM | –
CN(Cc1cnc2nc(N)nc(N)c2n1)c1ccc(C(=O)N[C@@H](CCC(=O)O)C(=O)O)cc1 | inconclusive: 50 µM | –
CCCCC(CC)COC(=O)/C=C/c1ccc(OC)cc1 (stereo unspecified) | inconclusive: 1.2 µM | –
CCCCOC(=O)c1ccc(O)cc1 | – | inactive
NC(=O)c1nc(-c2cccc(-c3cc(F)ccc3OCC(F)(F)C(F)(F)F)c2)n[nH]1 | – | inactive
Oc1cc2ccccc2c2ccccc12 | active: 3.08 µM | –
CCC/C=C/C=O | – | inactive
COCC(C)OCC(C)OCC(C)O (stereo unspecified) | – | inactive
Cc1ccccc1Cl | inconclusive: 50 µM | –
O=Nc1ccc(Nc2ccccc2)cc1 | active: 2.51 µM | –
O=C(/C=C/c1ccc(O)cc1)CC(=O)/C=C/c1ccc(O)cc1 | – | inactive

Part of the list above in order of molar mass, descending.
Structure (SMILES) | AC50 | outcome
CN(Cc1cnc2nc(N)nc(N)c2n1)c1ccc(C(=O)N[C@@H](CCC(=O)O)C(=O)O)cc1 | inconclusive: 50 µM | –
CC1=C(C)S(=O)(=O)CCS1(=O)=O | inconclusive: 50 µM | –
COCC(C)OCC(C)OCC(C)O (stereo unspecified) | – | inactive
CCCCOC(=O)c1ccc(O)cc1 | – | inactive
CCCCC/C=C\CCC=O | inconclusive: 50 µM | –
